These are yes or no findings as the source states them, for the method shown. Sequences can lack the tags named with a protein.
Biological target: β-catenin-binding domain of E-cadherin cytosolic tail targeted to mitochondria (mouse)
Experiment: mitochondrial co-recruitment assay (live-cell confocal imaging); E-cadherin tail constructs fused to RFP-tagged MLS of ActA held at mitochondria of U2OS cells; recruitment of co-expressed YFP-LGN-TPR or GFP-p120-catenin scored as fluorescence at mitochondria

B1: YFP-tagged TPR repeats of human LGN (domain or fragment, UniProt P81274 8-351)
chain: MREDHSFHVRYRMEASCLELALEGERLCKSGDCRAGVSFFEAAVQVGTEDLKTLSAIYSQLGNAYFYLHDYAKALEYHHHDLTLARTIGDQLGEAKASGNLGNTLKVLGNFDEAIVCCQRHLDISRELNDKVGEARALYNLGNVYHAKGKSFGCPGPQDVGEFPEEVRDALQAAVDFYEENLSLVTALGDRAAQGRAFGNLGNTHYLLGNFRDAVIAHEQRLLIAKEFGDKAAERRAYSNLGNAYIFLGEFETASEYYKKTLLLARQLKDRAVEAQSCYSLGNTYTLLQDYEKAIDYHLKHLAIAQELNDRIGEGRACWSLGNAYTALGNHDQAMHFAEKHLEI
In the case of B1, the binding is reported as “no binding”.

Source: article PMC5216124, “Cell division orientation is coupled to cell–cell adhesion by the E-cadherin/LGN complex” (Nature Communications, 2017)
